The assay deals with T1, PCDH7 isoform A, 3×Flag-tagged (pcDNA3.1-PCDH7-A-3×Flag) (human (cDNA from MDA-MB-436 cells)) (UniProt O60245).
T1 sequence: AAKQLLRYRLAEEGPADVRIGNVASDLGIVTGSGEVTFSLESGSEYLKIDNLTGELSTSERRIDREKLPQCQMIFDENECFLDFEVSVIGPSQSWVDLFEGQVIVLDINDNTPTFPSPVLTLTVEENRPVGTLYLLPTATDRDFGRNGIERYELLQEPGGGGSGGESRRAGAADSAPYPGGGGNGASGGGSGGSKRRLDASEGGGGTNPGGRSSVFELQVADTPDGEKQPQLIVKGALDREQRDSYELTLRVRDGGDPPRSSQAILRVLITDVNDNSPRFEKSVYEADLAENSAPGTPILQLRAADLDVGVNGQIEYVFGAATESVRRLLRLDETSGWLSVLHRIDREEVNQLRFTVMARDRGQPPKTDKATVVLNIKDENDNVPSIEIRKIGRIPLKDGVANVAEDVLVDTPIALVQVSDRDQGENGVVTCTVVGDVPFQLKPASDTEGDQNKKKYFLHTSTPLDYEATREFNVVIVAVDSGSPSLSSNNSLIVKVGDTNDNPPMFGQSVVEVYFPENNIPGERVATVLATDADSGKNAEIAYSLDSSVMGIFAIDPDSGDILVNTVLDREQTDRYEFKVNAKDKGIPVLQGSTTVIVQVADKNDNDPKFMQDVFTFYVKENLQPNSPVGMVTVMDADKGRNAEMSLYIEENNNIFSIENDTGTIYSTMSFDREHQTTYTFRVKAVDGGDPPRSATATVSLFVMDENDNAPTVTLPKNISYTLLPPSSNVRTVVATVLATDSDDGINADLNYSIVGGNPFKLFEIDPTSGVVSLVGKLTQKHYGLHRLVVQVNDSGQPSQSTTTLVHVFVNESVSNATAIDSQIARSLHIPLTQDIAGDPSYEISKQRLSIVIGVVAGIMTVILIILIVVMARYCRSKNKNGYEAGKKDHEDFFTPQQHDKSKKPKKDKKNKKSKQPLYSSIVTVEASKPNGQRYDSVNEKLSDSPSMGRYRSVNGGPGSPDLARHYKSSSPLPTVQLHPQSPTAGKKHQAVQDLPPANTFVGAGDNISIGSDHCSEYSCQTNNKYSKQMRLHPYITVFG
The experiment in a line: co-IP; overexpressed proteins in transfected HEK293FT cells; IP lysis buffer (20 mM Tris, 0.1 M NaCl, 0.1% NP40, 5 mM EDTA, pH 8); anti-Flag-Tag antibody and protein A/G agarose, 4°C overnight; western blot. On the technique in general: A western blot detects proteins with antibodies after separation by electrophoresis.

Amino acid sequences for entries named in this document (tags omitted).
UniProt P62136: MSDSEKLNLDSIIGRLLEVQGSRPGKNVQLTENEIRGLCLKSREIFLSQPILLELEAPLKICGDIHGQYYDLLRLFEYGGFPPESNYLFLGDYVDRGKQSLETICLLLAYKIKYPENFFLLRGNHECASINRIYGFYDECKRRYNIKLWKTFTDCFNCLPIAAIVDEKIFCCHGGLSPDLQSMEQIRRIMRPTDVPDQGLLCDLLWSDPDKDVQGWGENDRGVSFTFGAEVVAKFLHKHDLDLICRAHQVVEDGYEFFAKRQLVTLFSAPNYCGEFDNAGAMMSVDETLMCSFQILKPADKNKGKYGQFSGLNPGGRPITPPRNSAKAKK

These are yes or no findings as the source states them, for the method shown. In cells and extracts the contact can be indirect. Some results given as binding are weak or reduced against the parent protein; the word gives no strength. Tags and fused reporters may be left off the sequences shown.

As for “mCherry-tagged PP1α (plasmid pmCherry-PP1α-N1) (from UniProt P62136 1-330) (enzyme)”, the binding result is recorded as “binds”.

These data come from article PMC7225324.
